In publication PMC11555385 one finds binding data, which are given here for two molecules.

Amino acid sequences for entries named in this document (tags omitted).
UniProt P07355: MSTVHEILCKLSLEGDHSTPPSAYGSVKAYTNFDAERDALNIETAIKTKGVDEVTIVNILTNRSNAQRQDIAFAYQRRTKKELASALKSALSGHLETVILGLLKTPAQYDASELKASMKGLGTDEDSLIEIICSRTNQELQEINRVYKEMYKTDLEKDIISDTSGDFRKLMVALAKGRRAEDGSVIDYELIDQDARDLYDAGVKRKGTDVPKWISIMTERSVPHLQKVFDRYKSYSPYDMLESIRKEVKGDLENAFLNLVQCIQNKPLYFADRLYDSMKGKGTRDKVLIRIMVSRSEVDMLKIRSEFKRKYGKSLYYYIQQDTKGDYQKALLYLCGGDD

This experiment has as its target T1, CDC25A (human (endogenous in HeLa)) (UniProt P30304).
T1 sequence: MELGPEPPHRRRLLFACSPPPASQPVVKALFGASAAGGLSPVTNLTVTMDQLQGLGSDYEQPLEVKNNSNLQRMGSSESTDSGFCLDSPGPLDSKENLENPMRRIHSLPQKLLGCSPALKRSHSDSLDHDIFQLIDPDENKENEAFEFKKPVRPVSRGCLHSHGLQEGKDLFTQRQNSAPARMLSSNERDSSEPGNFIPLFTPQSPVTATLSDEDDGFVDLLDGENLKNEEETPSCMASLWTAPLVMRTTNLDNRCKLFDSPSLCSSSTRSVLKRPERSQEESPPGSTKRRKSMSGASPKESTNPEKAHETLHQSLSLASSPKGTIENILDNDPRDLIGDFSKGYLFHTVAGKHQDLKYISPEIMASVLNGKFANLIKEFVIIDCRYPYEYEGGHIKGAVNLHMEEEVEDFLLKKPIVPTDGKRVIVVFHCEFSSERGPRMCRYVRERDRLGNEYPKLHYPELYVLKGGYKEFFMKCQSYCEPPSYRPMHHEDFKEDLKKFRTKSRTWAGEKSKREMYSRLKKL
In words: proximity ligation; PLA in HeLa cells with different densities; red dots, fluorescent intensity normalized by nuclear number.

These are yes or no findings as the source states them, for the method shown. In cells and extracts the contact can be indirect. Some binding calls cover weakened binding; strength is not graded here.

Take Annexin A2 (from UniProt P07355 1-339): the binding entry was “binds”.

B1: Annexin A1 (protein, UniProt P04083 1-346)
chain: MAMVSEFLKQAWFIENEEQEYVQTVKSSKGGPGSAVSPYPTFNPSSDVAALHKAIMVKGVDEATIIDILTKRNNAQRQQIKAAYLQETGKPLDETLKKALTGHLEEVVLALLKTPAQFDADELRAAMKGLGTDEDTLIEILASRTNKEIRDINRVYREELKRDLAKDITSDTSGDFRNALLSLAKGDRSEDFGVNEDLADSDARALYEAGERRKGTDVNVFNTILTTRSYPQLRRVFQKYTKYSKHDMNKVLDLELKGDIEKCLTAIVKCATSKPAFFAEKLHQAMKGVGTRHKALIRIMVSRSEIDMNDIKAFYQKMYGISLCQAILDETKGDYEKILVALCGGN
B1: the binding result was “binds”.
